Test results taken from paper doi:10.1101/2024.12.12.628173.
These are yes or no findings as the source states them, for the method shown. In cells and extracts the contact can be indirect. Here binding means that the protein was enriched with, or labelled near, the bait; the list need not be complete. For part of these data: No binding means not detected with the bait.

The chains behind the UniProt entries cited, without tags or fusion partners. Where a name states a change or a piece, a line headed by the entry shows the natural chain unless it says otherwise. A line that says so, or that is headed by a name, gives the form on record, which may keep a tag or linker. Residues count along the entry.
UniProt Q9UBI1: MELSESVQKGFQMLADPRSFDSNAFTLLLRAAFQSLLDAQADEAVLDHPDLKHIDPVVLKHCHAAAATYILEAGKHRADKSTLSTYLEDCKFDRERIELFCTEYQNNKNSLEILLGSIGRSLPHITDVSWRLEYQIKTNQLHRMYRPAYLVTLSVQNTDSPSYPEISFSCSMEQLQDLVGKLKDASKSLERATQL
COMMD3 N-terminal domain (NTD) fused to mCherry and 3xFLAG: residues 1-124 of Q9UBI1
COMMD3 C-terminal domain (CTD) with N-terminal mCherry and C-terminal 3xFLAG: residues 125-195 of Q9UBI1
UniProt P84077: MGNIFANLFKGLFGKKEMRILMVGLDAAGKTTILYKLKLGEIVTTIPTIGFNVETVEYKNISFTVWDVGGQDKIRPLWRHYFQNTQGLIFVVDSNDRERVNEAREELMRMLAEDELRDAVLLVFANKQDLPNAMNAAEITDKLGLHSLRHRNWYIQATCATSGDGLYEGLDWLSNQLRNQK

Tests used:
Test in all cases: affinity purification with mass spectrometry; FL COMMD3, NTD and CTD (tagged with mCherry and 3xFLAG) individually expressed and isolated by immunoprecipitation from cell extracts (IP buffer: 25 mM HEPES pH 7.4, 138 mM NaCl, 10 mM Na3PO4, 2.7 mM KCl, 0.5% CHAPS, 1 mM DTT); associated proteins identified by mass spectrometry, compared with vector control
[1] = target: COMMD3 C-terminal domain (CTD) with N-terminal mCherry and C-terminal 3xFLAG (human) (UniProt Q9UBI1)
[2] = target: COMMD3 N-terminal domain (NTD) fused to mCherry and 3xFLAG (human) (UniProt Q9UBI1)
[3] = target: full-length (FL) COMMD3 fused to mCherry and 3xFLAG (human) (UniProt Q9UBI1)

binding [1]: no binding
binding [2]: binds
binding [3]: binds
Substance: ADP-ribosylation factor 1 (ARF1), found in the COMMD3 interactomes (from UniProt P84077 1-181)
